Source: PubChem BioAssay AID493014 (National Center for Advancing Translational Sciences (NCATS), 2011)
The list shows a part of the results. The main result of the screen is listed elsewhere. These columns were measured beside it and carry no call. Most of these compounds were active or inconclusive in the main read-out, so they are no random draw. Words in brackets tell the shape of the fitted curve; partial curves, single points and poor fits give uncertain potencies.

Assay: qHTS Assay to Find Inhibitors of Chronic Active B-Cell Receptor Signaling
Conditions: ABC-DLBCL IkBa-CBG/CBR reporter, luminescence ratio (green luciferase fused to IkBa over red control in TMD8 lymphoma cells), 4 h
Summary of the method: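 Compounds up to 46 uM were incubated four hours with TMD8 cells whose green CBG68 luciferase is fused to IkappaBalpha; red CBR luminescence normalised the signal, and concentration-effect curves were fitted to fusion, red and ratio data.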

[1] = measured here: CBR red luminescence, cell number
[2] = measured here: IkBa-CBG green luminescence

Row | Compound | AC50 [1] | AC50 [2]
1 | Cc1ccc2oc(=O)n(CCC(=O)Nc3ccc(N4CCOCC4)cc3)c2c1 | 3.98 µM [rising, partial curve, poor fit] | 
2 | O=C(Nc1ccccc1C(=O)N1CCOCC1)c1cccc(S(=O)(=O)N2CCCC2)c1 |  | 29.1 µM [rising, single point]
3 | Cc1csc(NC(=O)c2ccc(Br)s2)n1 | 10 µM [falling, partial curve, poor fit] | 
4 | COc1ccc(-c2cc(N3C(=O)Nc4ccccc4N3O)n[nH]2)cc1 | 1.46 µM [falling, full curve, poor fit] | 
5 | Cc1c([N+](=O)[O-])c(C(=O)Sc2ccc(Br)cc2)nn1C | 35.5 µM [rising, single point] | 35.5 µM [falling, single point]
6 | O=C(NCc1ccc2c(c1)OCO2)C(=O)Nc1ccccc1 | 17.8 µM [falling, partial curve, poor fit] | 
7 | Cc1nn(Cc2ccc(Cl)cc2Cl)c(C)c1NC(=O)CCl | 5.8 µM [falling, full curve] | 
8 | Cc1cc(C(=O)OCC(=O)Nc2cccc(S(=O)(=O)N(C)C)c2)c(C)o1 | 11.2 µM [falling, partial curve, poor fit] | 
9 | COc1ccccc1/C=C/C=N/NC(=O)CCC1C(=O)NN=C1C (stereo unspecified) | 9.2 µM [falling, partial curve] | 
10 | COc1ccc(C(=O)NC(=S)Nc2ccccc2N2CCOCC2)cc1Br | 2.06 µM [rising, partial curve, poor fit] | 
11 | O=C(Nc1ccccc1N1CCN(C(=O)c2ccccc2)CC1)c1cccc(Cl)c1 | 0.708 µM [rising, partial curve, poor fit] | 
12 | Cc1c(C)n(C)c2ccc([N+](=O)[O-])cc12 | 31.6 µM [rising, single point] | 
13 | Clc1ccc(-c2nc(C3CCCCC3)no2)cc1 | 3.98 µM [rising, partial curve, poor fit] | 
14 | Cn1cccc1Cc1nnc(SCC(=O)Nc2ccc3c(c2)OCCO3)n1-c1ccc(F)cc1 | 23.1 µM [falling, single point] | 
15 | O=C(CSCc1ccc(F)cc1)N1CCN(c2ccccc2F)CC1 | 17.8 µM [rising, single point] | 
16 | O=C(/C=C1\SC(=O)N(CC(=O)Nc2ccc(F)cc2)C1=O)Nc1ccc(Cl)cc1 | 1.46 µM [falling, partial curve] | 
17 | COc1ccc(OC)c(C=NNC(=O)c2ccc(NS(=O)(=O)c3cccs3)cc2)c1 | 9.2 µM [falling, partial curve, poor fit] | 
18 | CCOc1ccccc1N1CCN(Cc2cccc(OC)c2O)CC1 | 1.64 µM [rising, partial curve, poor fit] | 
19 | C=CCN=C1SCC(=O)N1S(=O)(=O)c1ccc(C)cc1 | 2.91 µM [falling, single point] | 5.17 µM [rising, partial curve, poor fit]
20 | CN(C)S(=O)(=O)c1cccc(-c2nnc(SCC(=O)NCCCCCC(=O)O)n2-c2ccc(F)cc2)c1 | 2.82 µM [rising, partial curve, poor fit] | 
21 | CCC1(c2ccc(Cl)cc2)NC(=O)N(CC(=O)NCc2ccc(F)cc2)C1=O (stereo unspecified) | 35.5 µM [falling, partial curve, poor fit] | 
22 | Cc1ccc(-n2c(-c3cnccn3)n[nH]c2=S)cc1 | 3.55 µM [rising, partial curve, poor fit] | 

Full records, looked up by structure.
O=C(/C=C1\SC(=O)N(CC(=O)Nc2ccc(F)cc2)C1=O)Nc1ccc(Cl)cc1 in the list: AC50 [1]: 1.46 µM [falling, partial curve]
Clc1ccc(-c2nc(C3CCCCC3)no2)cc1 in the list: AC50 [1]: 3.98 µM [rising, partial curve, poor fit]

Additional results:

Row | Compound | AC50 [1] | AC50 [2]
23 | Cc1cc(OCCCCOc2ccc(C#N)cc2)ccc1[N+](=O)[O-] | 2.51 µM [rising, partial curve, poor fit] | 
24 | Cc1cccc(N2CCN(C(=S)NCCc3ccccc3)CC2)c1C | 29.1 µM [rising, single point] | 
25 | C=CCn1c2ccccc2c(=O)c2cc(C#Cc3ccccn3)ccc21 | 23.1 µM [falling, single point] | 
26 | COc1cccc(NC(=O)CSc2nc3ccccc3nc2N2CCCC2)c1 | 0.708 µM [falling, full curve, poor fit] | 
27 | COC(=O)C1=C(C)Nc2[nH]c(=S)[nH]c(=O)c2C1c1ccc(O)cc1 (stereo unspecified) | 35.5 µM [rising, single point] | 
28 | CC(C)c1ccc(/C=N/n2c(-c3ccccc3)n[nH]c2=S)cc1 | 22.4 µM [rising, single point] | 
29 | COc1ccc2nc3c(c(-c4ccccc4)c2c1)CCC3 | 23.1 µM [rising, partial curve, poor fit] | 
30 | CSc1ccc(CN(C)C(=O)c2cccc(S(=O)(=O)NCc3ccccc3)c2)cc1 | 3.16 µM [falling, single point] | 
31 | O=C(COc1ccc2c3c(c(=O)oc2c1)CCC3)NCCCN1CCCC1=O | 11.2 µM [rising, single point] | 
32 | COc1cccc(-c2nnc(SCc3ccc(C#N)cc3)n2Cc2ccco2)c1 | 22.4 µM [falling, partial curve, poor fit] | 
33 | COc1cc(/C=C2\C(=O)N(CCC#N)N=C2C)ccc1OCC(=O)Nc1ccccc1 | 14.6 µM [falling, partial curve] | 
34 | CC1CCCN(CCCNC(=O)c2cc(Sc3ccc(F)cc3)nc3ccccc23)C1 (stereo unspecified) | 15.8 µM [falling, single point] | 
35 | COc1ccc(C(=O)NCCc2ccc(S(N)(=O)=O)cc2)cc1OC | 23.1 µM [rising, single point] | 
36 | O=C1c2ccccc2C(=O)N1CCc1csc(-c2ccccc2)n1 | 2.06 µM [rising, full curve] | 
37 | CCN(CC)C(=O)c1ccc2c(=O)n(CCOC)c(=S)[nH]c2c1 | 0.058 µM [falling, full curve, poor fit] | 
38 | Cc1cc(NC(=O)/C=C/c2ccc(Br)cc2)no1 | 2.31 µM [rising, partial curve] | 
39 | Cc1cc(C)cc(C(=O)Nc2cccc(NC(=O)c3ccco3)c2)c1 | 2.24 µM [falling, full curve, poor fit] | 
40 | CSCCC(NC(=O)c1occc1C)C(=O)O (stereo unspecified) | 3.26 µM [rising, partial curve, poor fit] | 
41 | CCN(CC)c1ncnc2c1cnn2-c1cc(Cl)ccc1C | 0.794 µM [rising, full curve, poor fit] | 
42 | Cc1c(C(=O)N/N=C/c2ccc(O)c(Br)c2)sc(N)c1C#N | 23.1 µM [falling, partial curve, poor fit] | 
43 | COc1ccc(-c2csc(Nc3ncccc3C)n2)cc1OC | 1.3 µM [rising, full curve, poor fit] | 
44 | CCc1ccc(N(C(=O)Cn2nnc(-c3ccccc3)n2)C(C(=O)NC2CCCCC2)c2ccccn2)cc1 (stereo unspecified) | 32.6 µM [rising, single point] | 

A draw from above in order of heavy-atom count, ascending.
Row | Compound | AC50 [1] | AC50 [2]
29 | COc1ccc2nc3c(c(-c4ccccc4)c2c1)CCC3 | 23.1 µM [rising, partial curve, poor fit] | 
32 | COc1cccc(-c2nnc(SCc3ccc(C#N)cc3)n2Cc2ccco2)c1 | 22.4 µM [falling, partial curve, poor fit] | 
33 | COc1cc(/C=C2\C(=O)N(CCC#N)N=C2C)ccc1OCC(=O)Nc1ccccc1 | 14.6 µM [falling, partial curve] | 

The results go on.

Row | Compound | AC50 [1] | AC50 [2]
45 | C=CCN(CC=C)C(=O)Nc1ccc2nc(C)sc2c1 | 0.164 µM [rising, full curve, poor fit] | 
46 | O=C1c2ccccc2C(=O)C1c1ccc(Br)cc1 | 11.2 µM [falling, single point] | 
47 | CCCCCCCC(=O)NNC(=O)CCC(=O)O | 15.8 µM [rising, partial curve, poor fit] | 
48 | CC1=NOC(=O)/C1=C/c1ccc(-c2ccc(Cl)cc2)o1 | 6.51 µM [rising, partial curve, poor fit] | 
49 | Cc1cccc2sc(NC(=O)C3CCN(C(=O)c4ccco4)CC3)nc12 | 0.891 µM [falling, full curve] | 
50 | CN(C)c1ccc(CN(C)C2CCCCC2)cc1 | 3.26 µM [rising, partial curve, poor fit] | 
51 | CC(C)CCCC(C)NS(=O)(=O)Cc1ccccc1 (stereo unspecified) | 0.92 µM [rising, full curve, poor fit] | 
52 | Clc1ccc(-c2nc3ccccn3c2CN2CCCCC2)cc1 | 25.1 µM [rising, single point] | 
53 | Cc1ccc(N2CCN(CCc3nc4cc(NS(C)(=O)=O)ccc4n3C)CC2)cc1 | 0.00411 µM [falling, full curve, poor fit] | 
54 | COc1ccc(CCNC(=O)CCSc2nc(-c3ccco3)cc(C(F)(F)F)n2)cc1OC | 14.6 µM [falling, partial curve, poor fit] | 
55 | N#Cc1ccccc1N=Cc1ccc(Br)cc1 | 2.31 µM [rising, full curve, poor fit] | 
56 | CCOC(=O)CSc1ncc(-c2ccc([N+](=O)[O-])cc2)[nH]1 | 10.3 µM [rising, partial curve, poor fit] | 
57 | CC(=O)c1c(C)[nH]c(C(=O)Nc2ccc3c(c2)OCCO3)c1C | 7.08 µM [falling, partial curve, poor fit] | 
58 | CC(C)n1nc(C(=O)Nc2nc3ccccc3[nH]2)c2ccccc2c1=O | 10 µM [falling, partial curve] | 
59 | CCN(Cc1cc2ccccc2[nH]c1=O)S(=O)(=O)c1ccccc1 | 1.3 µM [falling, partial curve] | 
60 | COc1ccc(C(C)(C)C)cc1S(=O)(=O)N1CCC(C(N)=O)CC1 | 8.2 µM [rising, partial curve, poor fit] | 
61 | CCOC(=O)c1nnc(-c2ccc(C)cc2)nc1Sc1ccccc1Cl | 29.1 µM [rising, single point] | 
62 | O=C1c2ccccc2NC(c2cccs2)N1O (stereo unspecified) | 18.4 µM [falling, partial curve, poor fit] | 
63 | N#C/C(=C(/O)CSc1ncn[nH]1)c1nc2ccccc2[nH]1 | 7.94 µM [falling, partial curve] | 
64 | C=CCNc1nc2c(c(=O)n(C)c(=O)n2C)n1Cc1ccc(F)cc1 | 13 µM [falling, partial curve, poor fit] | 
